Source: publication PMC8384837
Positions count from the first letter of the chain named. The list shows a part of the results. For some assays here: At the low end of the ranking the order means little.

Tests used:
Conditions in all cases: yeast three-hybrid, YBZ-1, SC-Leu-His + 0.5 mM 3-AT, 4 days
[1] = molecular target: T1, PUM1 PUF domain R5-RCL C1007R + R1008C + Q1011L (Homo sapiens) (UniProt Q14671)
T1 sequence: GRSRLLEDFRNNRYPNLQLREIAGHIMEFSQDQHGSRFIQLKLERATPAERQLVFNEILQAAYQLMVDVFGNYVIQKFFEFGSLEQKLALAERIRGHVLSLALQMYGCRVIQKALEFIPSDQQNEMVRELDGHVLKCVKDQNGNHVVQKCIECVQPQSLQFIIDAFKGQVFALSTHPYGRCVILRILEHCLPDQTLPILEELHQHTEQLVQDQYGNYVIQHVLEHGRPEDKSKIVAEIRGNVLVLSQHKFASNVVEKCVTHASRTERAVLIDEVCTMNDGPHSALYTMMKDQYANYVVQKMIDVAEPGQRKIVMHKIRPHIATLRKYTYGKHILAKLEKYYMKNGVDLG

[2] = molecular target: T2, PUM1 PUF domain R5-RCR C1007R + R1008C + Q1011R (Homo sapiens) (UniProt Q14671)
T2 sequence: T1 sequence with L184R

[3] = molecular target: T3, PUM1 PUF domain R5-RCS C1007R + R1008C + Q1011S (Homo sapiens) (UniProt Q14671)
T3 sequence: T1 sequence with L184S

[4] = molecular target: T4, PUM1 PUF domain R5-RCV C1007R + R1008C + Q1011V (UniProt Q14671)
T4 sequence: T1 sequence with L184V

[5] = molecular target: T5, PUM1 PUF domain R5-RDG C1007R + R1008D + Q1011G (UniProt Q14671)
T5 sequence: T1 sequence with C181D, L184G

[6] = molecular target: T6, PUM1 PUF domain R5-RDK C1007R + R1008D + Q1011K (UniProt Q14671)
T6 sequence: T1 sequence with C181D, L184K

[7] = molecular target: T7, PUM1 PUF domain R5-RDR C1007R + R1008D + Q1011R (UniProt Q14671)
T7 sequence: T1 sequence with C181D, L184R

[8] = molecular target: T8, PUM1 PUF domain R5-RGA C1007R + R1008G + Q1011A (UniProt Q14671)
T8 sequence: T1 sequence with C181G, L184A

[9] = molecular target: T9, PUM1 PUF domain R5-RGC C1007R + R1008G + Q1011C (Homo sapiens) (UniProt Q14671)
T9 sequence: T1 sequence with C181G, L184C

[10] = molecular target: T10, PUM1 PUF domain R5-RGD C1007R + R1008G + Q1011D (UniProt Q14671)
T10 sequence: T1 sequence with C181G, L184D

[11] = molecular target: T11, PUM1 PUF domain R5-RGE C1007R + R1008G + Q1011E (Homo sapiens) (UniProt Q14671)
T11 sequence: T1 sequence with C181G, L184E

[12] = molecular target: T12, PUM1 PUF domain R5-RGG C1007R + R1008G + Q1011G (Homo sapiens) (UniProt Q14671)
T12 sequence: T1 sequence with C181G, L184G

[13] = molecular target: T13, PUM1 PUF domain R5-RGK C1007R + R1008G + Q1011K (Homo sapiens) (UniProt Q14671)
T13 sequence: T1 sequence with C181G, L184K

[14] = molecular target: T14, PUM1 PUF domain R5-RGM C1007R + R1008G + Q1011M (Homo sapiens) (UniProt Q14671)
T14 sequence: T1 sequence with C181G, L184M

[15] = molecular target: T15, PUM1 PUF domain R5-RGP C1007R + R1008G + Q1011P (Homo sapiens) (UniProt Q14671)
T15 sequence: T1 sequence with C181G, L184P

[16] = molecular target: T16, PUM1 PUF domain R5-RGQ C1007R + R1008G (Homo sapiens) (UniProt Q14671)
T16 sequence: T1 sequence with C181G, L184Q

[17] = molecular target: T17, PUM1 PUF domain R5-RGR C1007R + R1008G + Q1011R (Homo sapiens) (UniProt Q14671)
T17 sequence: T1 sequence with C181G, L184R

[18] = molecular target: T18, PUM1 PUF domain R5-RGS C1007R + R1008G + Q1011S (Homo sapiens) (UniProt Q14671)
T18 sequence: T1 sequence with C181G, L184S

[19] = molecular target: T19, PUM1 PUF domain R5-RGT C1007R + R1008G + Q1011T (Homo sapiens) (UniProt Q14671)
T19 sequence: T1 sequence with C181G, L184T

[20] = molecular target: T20, PUM1 PUF domain R5-RGV C1007R + R1008G + Q1011V (Homo sapiens) (UniProt Q14671)
T20 sequence: T1 sequence with C181G, L184V

GGCUAGAACUAGUGGAUCCCCCGGCGCCCGGCGGCUCGAGCCCGGGUAAGUGUAAAUAGUCUGCAUGCCGCCGGGCGCCAUGCCUGCAGGUCGACUCUAGAAAACAUG
binding signal (log2 enrichment (interaction score)) [1]: -0.43
binding signal (log2 enrichment (interaction score)) [2]: -0.85
binding signal (log2 enrichment (interaction score)) [3]: -0.51
binding signal (log2 enrichment (interaction score)) [4]: -4.38
binding signal (log2 enrichment (interaction score)) [5]: -7.06
binding signal (log2 enrichment (interaction score)) [6]: -5.95
binding signal (log2 enrichment (interaction score)) [7]: -5.9
binding signal (log2 enrichment (interaction score)) [8]: -3.63
binding signal (log2 enrichment (interaction score)) [9]: -0.85
binding signal (log2 enrichment (interaction score)) [10]: -6.93
binding signal (log2 enrichment (interaction score)) [11]: -4.36
binding signal (log2 enrichment (interaction score)) [12]: -0.3
binding signal (log2 enrichment (interaction score)) [13]: 0.17
binding signal (log2 enrichment (interaction score)) [14]: -0.41
binding signal (log2 enrichment (interaction score)) [15]: -1.1
binding signal (log2 enrichment (interaction score)) [16]: 0.44
binding signal (log2 enrichment (interaction score)) [17]: 0.16
binding signal (log2 enrichment (interaction score)) [18]: -1.92
binding signal (log2 enrichment (interaction score)) [19]: -1.13
binding signal (log2 enrichment (interaction score)) [20]: -2.04
